Test results taken from publication PMC2908623.
Results are given in words; binding and its absence hold for the method and conditions named. Binding seen in cells or lysates may run through a third protein. Some entries that bind do so weakly or less than the wild type.

Amino acid sequences for entries named in this document (tags omitted). Residues count along the entry.
UniProt P23359, residues 292-430: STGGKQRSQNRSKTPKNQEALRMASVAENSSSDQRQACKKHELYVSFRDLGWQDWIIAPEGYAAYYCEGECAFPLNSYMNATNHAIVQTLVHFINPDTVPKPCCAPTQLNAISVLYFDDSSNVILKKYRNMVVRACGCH

Molecular target: bone morphogenetic protein-7 (mouse (endogenous in mouse mesangial cells)) (UniProt P23359)
Experiment: co-IP; endogenous proteins in lysate of mouse mesangial cells (RIPA buffer: 20 mM Tris-HCl pH 7.4, 100 mM NaCl, 1 mM CaCl2, 1 mM MgCl2, 1% Triton X-100); precipitated with rabbit antibodies against mouse Gremlin or BMP-7 and protein A-Sepharose, overnight at 4°C; blotted for BMP-7 or Gremlin; normal rabbit IgG as negative control; cells cultured under high glucose

B1: Gremlin (protein, UniProt O70326 25-184)
chain: KKKGSQGAIPPPDKAQHNDSEQTQSPPQPGSRTRGRGQGRGTAMPGEEVLESSQEALHVTERKYLKRDWCKTQPLKQTIHEEGCNSRTIINRFCYGQCNSFYIPRHIRKEEGSFQSCSFCKPKKFTTMMVTLNCPELQPPTKKKRVTRVKQCRCISIDLD
  binding: binds
